From article doi:10.1101/2025.01.16.633295
No constants are given. Whether binding was seen depends on the method and setting. In cells and extracts the contact can be indirect. Some entries that bind do so weakly or less than the wild type. Where a sequence is shown, tags or fusion partners need not be part of it.

T1: GST-TIA1 (T-cell intracellular antigen 1) (UniProt P31483)
T1 sequence: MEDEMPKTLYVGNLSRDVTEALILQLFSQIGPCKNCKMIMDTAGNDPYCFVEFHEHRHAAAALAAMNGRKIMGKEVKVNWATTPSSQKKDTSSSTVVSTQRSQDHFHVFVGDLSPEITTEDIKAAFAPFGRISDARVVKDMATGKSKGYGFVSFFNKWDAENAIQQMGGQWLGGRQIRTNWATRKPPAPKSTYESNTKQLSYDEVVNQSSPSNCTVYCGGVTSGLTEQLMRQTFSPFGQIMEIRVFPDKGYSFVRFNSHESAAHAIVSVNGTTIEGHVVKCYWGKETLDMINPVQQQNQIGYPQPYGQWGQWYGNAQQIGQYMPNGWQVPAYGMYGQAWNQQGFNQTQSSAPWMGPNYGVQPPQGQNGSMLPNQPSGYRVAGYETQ

T2: HA-TIA1 (HEK293T) (UniProt P31483)
T2 sequence: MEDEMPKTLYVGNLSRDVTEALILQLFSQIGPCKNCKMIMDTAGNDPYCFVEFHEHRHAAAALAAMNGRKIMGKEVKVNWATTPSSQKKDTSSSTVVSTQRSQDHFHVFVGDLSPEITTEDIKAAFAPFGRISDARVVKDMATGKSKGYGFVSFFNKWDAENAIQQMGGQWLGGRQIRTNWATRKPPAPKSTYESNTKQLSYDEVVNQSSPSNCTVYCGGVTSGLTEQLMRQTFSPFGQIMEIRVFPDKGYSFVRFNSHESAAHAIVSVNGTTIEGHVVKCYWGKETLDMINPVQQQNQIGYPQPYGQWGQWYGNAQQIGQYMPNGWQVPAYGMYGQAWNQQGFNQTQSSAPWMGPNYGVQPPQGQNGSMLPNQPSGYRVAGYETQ

T3: Flag-TIA1 (HEK293T) (UniProt P31483)
T3 sequence: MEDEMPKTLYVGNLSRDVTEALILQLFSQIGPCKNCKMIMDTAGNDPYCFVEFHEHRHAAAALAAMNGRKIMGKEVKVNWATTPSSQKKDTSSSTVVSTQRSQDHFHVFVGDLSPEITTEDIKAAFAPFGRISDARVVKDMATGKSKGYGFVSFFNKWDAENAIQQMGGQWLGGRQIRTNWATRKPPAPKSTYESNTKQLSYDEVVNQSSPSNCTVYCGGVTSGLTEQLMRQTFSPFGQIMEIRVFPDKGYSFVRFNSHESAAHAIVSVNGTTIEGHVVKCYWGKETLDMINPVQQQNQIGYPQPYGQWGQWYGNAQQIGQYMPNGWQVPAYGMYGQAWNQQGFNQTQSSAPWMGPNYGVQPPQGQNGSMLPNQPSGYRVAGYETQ


Columns and labels:
[1] = molecular target: T1, GST-TIA1 (T-cell intracellular antigen 1); assay: pull-down
HA-TIA1 (HEK293T) = molecular target: T2, HA-TIA1 (HEK293T); assay: co-IP
Flag-TIA1 (HEK293T) = molecular target: T3, Flag-TIA1 (HEK293T); assay: co-IP

| binding [1] | binding (HA-TIA1 (HEK293T)) | binding (Flag-TIA1 (HEK293T)) | Binder |
| --- | --- | --- | --- |
| binds | – | – | Annexin A7 (ANXA7), endogenous, rat (protein, UniProt Q6IRJ7 1-485) MSYPGYPPTGYPPFPGYPPAGQESSFPTSGQYPYPSGFPPMGGGAYPPAPSGGYPGAGGYPSPGGYPAPGGYPGTLNPGGPPSYPGGQGFGAPPGGAGFSGYPQPPAQSYGGGPAQVPVPGGFPGGQMPSQYPGGQSPYPGQIDTESFSSYPAFSPVSLDYSSDPAAMTQGTQGTIRPASNFDAMRDAEILRKAMKGFGTDEQAIVDVVSNRSNDQRQQIKAAFKTMYGKDLIKDLKSELSGNMEELILALFMPPTYYDAWSLRKAIQGAGTQERVLIEILCTRTNQEIRDIVRCYQLEFGRELERDIRSDTSGHFERLLVSMCQGNRDESPSINHQMAQEDAQRLYQAGEGRLGTDESCFNMILATRSFPQLRATMEAYSRMANRDLLSSVSREFSGYVESGLKTILQCALNRPAFFAERLYYSMKGAGTDDSTLVRIVVTRSEIDLVQIKQMFTQMYQKTLSTMIASDTSGDYRKLLLAIVGQ |
| – | binds | binds | Myc-ANXA7 (HEK293T) (protein, UniProt Q6IRJ7 1-485) MSYPGYPPTGYPPFPGYPPAGQESSFPTSGQYPYPSGFPPMGGGAYPPAPSGGYPGAGGYPSPGGYPAPGGYPGTLNPGGPPSYPGGQGFGAPPGGAGFSGYPQPPAQSYGGGPAQVPVPGGFPGGQMPSQYPGGQSPYPGQIDTESFSSYPAFSPVSLDYSSDPAAMTQGTQGTIRPASNFDAMRDAEILRKAMKGFGTDEQAIVDVVSNRSNDQRQQIKAAFKTMYGKDLIKDLKSELSGNMEELILALFMPPTYYDAWSLRKAIQGAGTQERVLIEILCTRTNQEIRDIVRCYQLEFGRELERDIRSDTSGHFERLLVSMCQGNRDESPSINHQMAQEDAQRLYQAGEGRLGTDESCFNMILATRSFPQLRATMEAYSRMANRDLLSSVSREFSGYVESGLKTILQCALNRPAFFAERLYYSMKGAGTDDSTLVRIVVTRSEIDLVQIKQMFTQMYQKTLSTMIASDTSGDYRKLLLAIVGQ |
